The numbers were not newly measured in patent publication US11744273B2, “Sweetness enhancing volatile compositions and methods of increasing perceived sweetness of a comestible” (University of Florida Research Foundation, Inc., priority 2016, dated 2023), which cites them from elsewhere.

For the data set the following is noted: tomato volatiles; cited from earlier work.

Turning to `C=CC(=O)CC` [1-penten-3-one], the Odor description entry is reported as “earthy, green, pungent”.
In the case of `CCC(C)C=O` (centres unmarked) [2-methylbuteraldehyde, 2-methylbutanal], the Odor description result is recorded as “chocolate”.
For the molecule `CC(C)CCO` [3-methyl-1-butanol], the Odor description entry was “whiskey”.
In the case of `CC1C=CC2C(C1)C2(C)C` (centres unmarked) [4-carene], the Odor description entry is “dry, woody, sage, thyme”.
As for `CC(C)=CCCC(C)O` (centres unmarked) [6-methyl-5-hepten-2-ol], the Odor description entry is “oily green coriander”.
Regarding `CC(=O)OCCC(C)C` [isopentyl acetate], the Odor description entry is “juicy fruit, banana, pear”.
In the case of `CC(C)CC(=O)O` [isovaleric acid], the Odor description entry is “cheesy or sweaty”.
As to `CC(C)=CCC/C(C)=C\C=O` [neral], the Odor description result was “lemon”.
